Measurements published in PubChem BioAssay AID2685 (National Center for Advancing Translational Sciences (NCATS), 2010).
This is one part of the list. Further columns of the screen follow, without active or inactive calls. The list favours compounds with an active or inconclusive main result. Potencies come from curve fits of mixed quality, noted in brackets.

Experiment: qHTS Assay for Lipid Storage Modulators in Drosophila S3 Cells;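 as to cell number change: cells counted by Cell Tracker Red CMTPX staining in the red channel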
Conditions: BODIPY lipid droplet fluorescence, 18-24 h; for cell number change: measured here: cell count max response, cells fed with added oleic acid
Method in brief: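 Laser-scanning cytometry quantifies lipid droplet accumulation (500–530 nm total intensity; droplet/cell object ratio) in oleic acid-fed (400 uM added) Drosophila S3 cells treated with a concentration series. 20 uM Triacsin C defined 100% inhibition.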

[1] = measured here: lipid fluorescence (Fed channel) AC50, cells fed with added oleic acid
[2] = measured here: cell number channel AC50, cells fed with added oleic acid

Compound | cell number change | AC50 [1] | AC50 [2]
COc1cc(NC(=O)COc2ccccc2)c(OC)cc1NC(C)=O | -18.1% | 18.4 µM [falling, partial curve, poor fit] | –
O=C(NC(=O)N1CCN(c2ccc([N+](=O)[O-])cn2)CC1)c1c(Cl)cccc1Cl | 31.1% | – | 2.31 µM [rising, full curve, poor fit]
CCCN(C(=O)C(NC(=O)c1ccccc1)C(C)C)c1c(N)n(Cc2ccccc2)c(=O)[nH]c1=O (configuration not stated) | 17.8% | 3.26 µM [rising, full curve] | –
C=CCNC(=O)/C(C#N)=C/c1c(C)nn(-c2ccc(Cl)cc2)c1Cl | 6.94% | 16.4 µM [falling, single point] | –
Cc1c(/C=C/C(=O)c2cccs2)cnn1C | -27.3% | 29.1 µM [falling, single point] | –
COc1cccc(CNC(=O)CSCc2cnn(-c3ccccc3)c2-n2cccc2)c1 | – | 3.66 µM [rising, single point] | –
Cc1cc2c(cc1S(=O)(=O)CCC(=O)NC1CCC(C)CC1)OCC(=O)N2 (configuration not stated) | -13% | – | –
COC(=O)C1=C(C)OC(N)=C(C#N)C1c1cc(OC)c(OCC(N)=O)cc1Cl (configuration not stated) | – | 13 µM [falling, partial curve, poor fit] | –
COc1ccc(N2CCN(C(=S)Nc3ccccc3)CC2)cc1 | 13.7% | 29.1 µM [rising, single point] | –
N#Cc1nc(COc2ccccc2)oc1N1CCC(Cc2ccccc2)CC1 | -33.9% | – | 29.1 µM [falling, single point]
Cc1ccc(NC(=O)C2(C)Cc3ccccc3C(=O)O2)cc1 (configuration not stated) | -0.0925% | 6.51 µM [falling, single point] | 6.51 µM [falling, single point]
COc1ccc(OCC(=O)N2CCN(C(=O)c3ccco3)CC2)cc1 | 42.1% | – | –
O=C(O)c1cccc(Nc2nc(Nc3ccccc3)nc(N3CCCC3)n2)c1 | -10.3% | 1.3 µM [falling, partial curve] | –
CCOc1ccc(Cl)cc1/C=N/NC(=O)c1ccccc1 | -17.1% | 10.3 µM [rising, partial curve] | –
Cc1ccc2c(c1)c1c(n2CC(O)Cn2c(C)nc3ccccc32)CCCC1 (configuration not stated) | -115% | 18.4 µM [falling, single point] | 29.1 µM [falling, single point]
CC(=O)Nc1ccc(CNC(=O)C[N+]2(C)CCOCC2)cc1 | 2.51% | – | –
COc1ccc(N=Cc2nc(-c3ccccc3)oc2OC(=O)c2ccccc2)cc1 | 33.3% | 13 µM [rising, partial curve, poor fit] | 0.259 µM [rising, partial curve, poor fit]
CCCCC(=O)N=c1sc2cc([N+](=O)[O-])ccc2n1C | 2.22% | – | 0.164 µM [rising, full curve, poor fit]
CC(C)c1ccc(NC(=O)CSc2nc(=O)n(CCCN3CCOCC3)c3c2CCCC3)cc1 | – | 3.66 µM [falling, single point] | –
COc1ccc(C)cc1S(=O)(=O)NC1CCCC1 | 94.8% | 11.6 µM [rising, partial curve, poor fit] | 20.6 µM [rising, partial curve, poor fit]

Compound | cell number change | AC50 [1] | AC50 [2]
Cc1occc1-c1nnc(SCC(=O)c2c[nH]c3ccccc23)n1C | -21.1% | – | –
O=S(=O)(c1ccc(-c2csc(=Nc3ccccc3)n2CCCN2CCOCC2)cc1)N1CCOCC1 | -21.2% | 29.1 µM [falling, single point] | –
COc1cc(/C=C/C(=O)O)cc(S(=O)(=O)Nc2ccccc2SC)c1OC | -35.1% | – | 2.91 µM [falling, full curve]
COc1ccccc1CNC(=O)Nc1cccs1 | 49.6% | 13 µM [rising, partial curve] | 9.2 µM [rising, partial curve]
O=C(Nc1c(C(=O)NCc2ccco2)cnn1-c1ccccc1)c1ccc(F)cc1 | – | – | 2.31 µM [rising, partial curve]
CN1CCN(CC(=O)Nc2cc(N3CCOCC3)ccc2[N+](=O)[O-])CC1 | -0.422% | 32.6 µM [falling, single point] | –
CC(C)n1cc(CN2CCC(Oc3ccc(C(=O)N4CCCC4)cc3)CC2)cn1 | -21.3% | 29.1 µM [rising, partial curve, poor fit] | 0.259 µM [rising, single point]
COc1ccc(C(=O)Nc2ccc(NC(=O)c3cccc(OC)c3)cn2)cc1 | 4.05% | 29.1 µM [falling, single point] | –
N#C/C(=C(/O)COC(=O)c1ccccc1O)c1nc2ccccc2s1 | -4.62% | 18.4 µM [falling, single point] | –
Fc1ccccc1Sc1ccccc1CNC1=NCCN1 | -31% | 29.1 µM [falling, single point] | 18.4 µM [falling, single point]
CCOc1ccc(N=C(NN)c2ccc3ccccc3n2)cc1 | 24.1% | 0.259 µM [rising, full curve, poor fit] | –
O=C(CCCN1CCOCC1)c1ccc2c(c1)OCCO2 | -4.55% | – | –
Cc1cc(C)nc(OC(C(=O)O)C(OCCc2ccccc2)(c2ccccc2)c2ccccc2)n1 (configuration not stated) | -40.9% | 0.291 µM [falling, full curve] | 20.6 µM [falling, single point]
S=C(NCCN1CCOCC1)Nc1ccc(Cl)cc1Cl | 4.24% | 6.51 µM [rising, partial curve, poor fit] | –
CCOC(=O)CCc1c(C)c2ccc(OCC(=O)OC(C)C)cc2oc1=O | -30.6% | 25.9 µM [rising, single point] | 3.66 µM [falling, full curve]
Cc1cc(NC(=O)CSc2ccccn2)cc(NC(=O)CSc2ccccn2)c1 | 4.76% | – | –
CCOc1ccc(S(=O)(=O)N(CC(=O)NC2CCCCC2C)Cc2ccco2)cc1 (configuration not stated) | -7.54% | 20.6 µM [falling, partial curve, poor fit] | –
C=C(C)c1cccc(C(C)(C)NC(=O)Nc2ccc(C)cn2)c1 | -26% | 29.1 µM [falling, single point] | –
C/C(=N\NC(=S)NCCc1ccccc1)c1cccs1 | -33.3% | – | 0.731 µM [falling, full curve]
CC(C)Cc1nnc(NC(=O)CN2C(=O)C3CCCCC3C2=O)s1 (configuration not stated) | -50% | 0.146 µM [falling, partial curve, poor fit] | –

Compound | cell number change | AC50 [1] | AC50 [2]
O=C(NCCC1=CCCCC1)C1CCN(S(=O)(=O)c2cccc3cccnc23)CC1 | 39.9% | 23.1 µM [rising, partial curve] | 10.3 µM [rising, single point]
COc1cccc(C(=O)CSc2nnc(-c3ccco3)n2CC2CCCO2)c1 (configuration not stated) | 20% | 20.6 µM [rising, single point] | –
COc1cccc(-c2cc(C(=O)NCc3ccco3)no2)c1 | -17.8% | – | –
COc1ccc(-n2nc(C(=O)O)c3ccccc3c2=O)c(OC)c1 | -21.9% | 29.1 µM [falling, single point] | –
CCC(=O)Nc1ccc2c(c1)nc(CCN1CCN(C)CC1)n2C | -16.7% | 0.00461 µM [falling, full curve, poor fit] | –
O=C(NCc1ccccc1)c1ccc(CS(=O)(=O)Cc2ccc(F)cc2)o1 | -32.9% | – | 29.1 µM [falling, single point]
Cn1c(=O)n(Cc2ccc(F)cc2)c(=O)c2c1nc1n2CCCN1Cc1ccccc1 | -64% | – | 1.64 µM [falling, partial curve, poor fit]
O=C(c1ccco1)N1CCN(c2c(-c3ccccc3)c3cc(Cl)ccc3[nH]c2=O)CC1 | -6.08% | 0.0731 µM [rising, full curve, poor fit] | 0.82 µM [rising, partial curve]
COc1ccc(-n2c(C)nc3cc(C(=O)NCc4ccco4)ccc32)cc1 | 0.988% | – | –
CN=c1scc(-c2ccccc2F)n1/N=C/c1ccc(O)c(O)c1O | -89.5% | 29.1 µM [falling, single point] | 29.1 µM [falling, single point]
Cc1c(Cl)cccc1NC(=O)CCCN1C(=O)CCC1=O | 9.41% | 0.517 µM [rising, full curve] | –
COc1cccc(NC(=O)c2sc(Cl)nc2C)c1 | -2.35% | 2.31 µM [rising, partial curve] | –
COC(=O)C1CC(O)CN1C(=O)c1ccco1 (configuration not stated) | -80.4% | 3.26 µM [falling, single point] | 25.9 µM [falling, partial curve]
NC(=O)c1ccsc1NC(=O)COC(=O)c1ccc([N+](=O)[O-])o1 | 0.258% | – | –
COc1ccc(C2CC(C)(c3ccc(OC)cc3)Nc3ccccc3N2)cc1 (configuration not stated) | 7.68% | – | 4.11 µM [rising, partial curve, poor fit]
CCOC(=O)C(CO)(NC(C)=O)C(=O)OCC | -7.75% | 0.0651 µM [rising, full curve, poor fit] | –
Cc1nnsc1C(=O)N1CCCC(Nc2ccc(F)c(F)c2)C1 (configuration not stated) | 0.85% | – | –
COC(=O)c1cccc(NC(=O)CSc2nc(O)c(-c3ccccc3)c(=O)[nH]2)c1 | 163% | – | 13 µM [rising, partial curve]
CCCN1C(=O)SC(CC(=O)Nc2ccc(Br)cc2)C1=O (configuration not stated) | – | 3.26 µM [falling, partial curve] | –
COc1ccc(N2CCN(C(=O)C(NC(=O)c3c(F)cccc3F)C(C)C)CC2)cc1 (configuration not stated) | -2.42% | – | –

Record cards (already shown). Order of values: cell number change | AC50 [1] | AC50 [2]
COc1ccc(-n2nc(C(=O)O)c3ccccc3c2=O)c(OC)c1 is listed with -21.9% | 29.1 µM [falling, single point] | –
COc1ccc(N2CCN(C(=O)C(NC(=O)c3c(F)cccc3F)C(C)C)CC2)cc1 (configuration not stated) is listed with -2.42% | – | –
